PubChem BioAssay AID1259300 – Sanger Institute, 2017

- Purpose: 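Which knock-downs harm HCT15 alone or synergise with the drugs BYL719, cetuximab or trametinib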 (primary screen)
- Cells: HCT15 colorectal cancer cells
- Reagents: siRNA pool against human genes
- Treatment: anchor drug or DMSO vehicle added 24 h after seeding: BYL719 1 µM, cetuximab 5 µg/ml, trametinib 10 nM; drug doses chosen to barely affect viability alone
- Measured: 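Cell viability after knock-down, as fraction of non-targeting pool wells averaged over replicates, plus robust z-score for knock-down alone; synergy score per drug (BYL719 1 µM, cetuximab 5 µg/ml, trametinib 10 nM)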
- Reading the numbers: viability z-score, siRNA alone: higher = more viable cells after knock-down
- Rule for the call: 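Called active (essential) if viability z-score with knock-down alone falls below -3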
- Calls: active = essential: knock-down alone lowers viability (z below -3); inactive = no strong viability loss with knock-down alone
The whole screen tested 794 reagents; below is a part drawn at random. Over the whole deposit, 18 (2.3%) are marked active. 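Calls rest on knock-down alone, not drug synergy; depositor treated synergy scores above 0.15 as synergistic; drug doses alone had little viability effect.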 Further read-outs or replicates are left out here. Not given: the amount of reagent, the time to read-out.

EPHA10 (GeneID 284656): viability z-score, siRNA alone = 0.625; activity call = inactive
RIOK3 (GeneID 8780): viability z-score, siRNA alone = -0.176; activity call = inactive
DGKK (GeneID 139189): viability z-score, siRNA alone = 0.101; activity call = inactive
MTOR (GeneID 2475): viability z-score, siRNA alone = 0.407; activity call = inactive
STK35 (GeneID 140901): viability z-score, siRNA alone = 0.625; activity call = inactive
PTK2 (GeneID 5747): viability z-score, siRNA alone = -1.29; activity call = inactive
RIPK4 (GeneID 54101): viability z-score, siRNA alone = 0.385; activity call = inactive
LMBR1 (GeneID 64327): viability z-score, siRNA alone = 0.389; activity call = inactive
ACO1 (GeneID 48): viability z-score, siRNA alone = -0.346; activity call = inactive

A run of entries from the list above, as a working copy:
DGKK (GeneID 139189): viability z-score, siRNA alone = 0.101; activity call = inactive
MTOR (GeneID 2475): viability z-score, siRNA alone = 0.407; activity call = inactive

Next results follow:
BRDT (GeneID 676): viability z-score, siRNA alone = -0.915; activity call = inactive
CAMK2G (GeneID 818): viability z-score, siRNA alone = 0.251; activity call = inactive
NME2 (GeneID 4831): viability z-score, siRNA alone = 0.625; activity call = inactive
MAPK15 (GeneID 225689): viability z-score, siRNA alone = 0.625; activity call = inactive
MAP3K4 (GeneID 4216): viability z-score, siRNA alone = 0.167; activity call = inactive
GSK3B (GeneID 2932): viability z-score, siRNA alone = 0.625; activity call = inactive
MAP3K14 (GeneID 9020): viability z-score, siRNA alone = -0.502; activity call = inactive
CSNK2A1 (GeneID 1457): viability z-score, siRNA alone = 0.564; activity call = inactive
IPMK (GeneID 253430): viability z-score, siRNA alone = 0.625; activity call = inactive
CDK2 (GeneID 1017): viability z-score, siRNA alone = -0.28; activity call = inactive
